{"source": "patent US20180170983A1", "about": "“New Use of Cell-Permeable Peptide Inhibitors of the JNK Signal Transduction Pathway for the Treatment of Mild Cognitive Impairment” (Xigen Inflammation Ltd., priority 2015, published 2018)", "key": {"[1]": {"test_system": "dopaminergic neurons", "details": "MPTP-induced PD; cited from earlier work"}, "[2]": {"test_system": "recombinant JNK1, JNK2, or JNK3 kinases", "assay": "Solid phase kinase assay, phosphorylation of c-Jun, ATF2 and Elk1 by JNKs", "assay_type": "biochemical"}, "[3]": {"test_system": "βTC-3 cells", "assay": "IL-1β induced pancreatic beta-cell death, peptide addition", "assay_type": "cell-based", "details": "one single addition of peptide 1 μM, IL-1β every two days, 15 days", "experimental": "Inhibition of IL-1β induced pancreatic beta-cell death by the D-TAT-IB1(s) peptide was analyzed. βTC-3 cells were incubated as described above for 30 minutes with one single addition of the indicated peptides (1 μM), then IL-1 (10 ng/ml) was added.\nApoptotic cells were then counted after two days of incubation with IL-1β by use of Propidium Iodide and Hoechst 33342 nuclear staining. A minimum of 1,000 cells were counted for each experiment. Standard Error of the Means (SEM) are indicated, n=5.\nLong term inhibition of IL-1P induced cell-death by the D-TAT-IB1 peptide was also analyzed. βTC-3 cells were incubated as above for 30 minutes with one single addition of the indicated peptides (1 μM), then […] (10 ng/ml) was added, followed by addition of the cytokine every two days. Apoptotic cells were then counted after 15 days of incubation with IL-1 by use of propidium iodide and Hoechst 33342 nuclear staining. […] A minimum of 1.000 cells were counted for each experiment."}, "[4]": {"test_system": "cleaved caspase 3", "assay": "Activated (cleaved) caspase 3 levels by immunoblot, 5XFAD mice", "assay_type": "in vivo"}, "[5]": {"test_system": "JNK", "assay": "JNK activation (pJNK/JNK ratio) by immunoblot, WT and 5XFAD mice", "assay_type": "in vivo", "details": "for change of JNK activation level (pJNK/JNK): 6 months"}, "[6]": {"test_system": "endogenous JNK activity in HepG2 cells", "assay": "Endogenous JNK activity in HepG2 cells, AlphaScreen all-in one well", "assay_type": "cell-based", "details": "FIG. 3 panel d"}, "[7]": {"test_system": "cytokine IL1-β", "assay": "IL1-β level in cortex by LUMINEX assay, WT and 5XFAD mice", "assay_type": "in vivo"}, "[8]": {"assay": "Y-maze spontaneous alternation, spatial and procedural working memory", "assay_type": "in vivo", "details": "5XFAD mice treated for 6 months, 10 mg/kg i.v. every 3 weeks"}, "[9]": {"test_system": "Aβ42", "assay": "Aβ42 load in Layer 5 cortex by immunostaining, 5XFAD mice", "assay_type": "in vivo", "details": "10 mg/kg i.v. every 3 weeks, 3 months, vs saline"}, "[10]": {"test_system": "c-Jun", "assay": "cJun activation (Pc-JunSer63/c-Jun) by immunoblot, WT and 5XFAD mice", "assay_type": "in vivo", "details": "10 mg/kg i.v. every 3 weeks; for change of cJun activation level: 6 months"}, "[11]": {"test_system": "caspase 3", "assay": "Caspase 3 activity enzyme assay in cortex and hippocampus, WT and 5XFAD mice", "assay_type": "in vivo", "details": "for change of caspase 3 activity: 9-months old 5XFAD mice, 6 months treatment, vs saline"}, "[12]": {"test_system": "pBcl2 [Ser87]", "assay": "pBcl2 [Ser87] levels by immunoblot, 5XFAD mice", "assay_type": "in vivo", "details": "cortex and hippocampus"}, "[13]": {"details": "after 3 months of treatment (6 month old mice), saline vs XG-102"}}, "note": "For some assays here: Part of at least one peptide drawing is inferred or uncertain, most often the ends. For some assays here: At least one compound was matched to its structure with a doubt left. Ends that are not written are not given here.", "data": [{"compound": "Oc1c2ccccc2c2c3c(cccc13)N=N2", "note": "[SP600125]", "values": [{"measurement": "apoptosis of dopaminergic neurons", "setting": "[1]", "value": "protect dopaminergic neurons from apoptosis"}, {"measurement": "level of dopamine", "setting": "[1]", "value": "partly restore the level of dopamine"}, {"measurement": "levels of c-Jun phosphorylation", "setting": "[1]", "value": "reduce the levels of c-Jun phosphorylation"}]}, {"compound": "GRKKRRQRRRPPRPKRPTTLNLFPQVPRSQD [L-TAT-IB1(s)]", "values": [{"measurement": "peptide dose giving nearly complete inhibition of c-Jun, ATF2 and Elk1 phosphorylation by JNKs", "setting": "[2]; dose response 0-25 μM, doses as low as", "value": "2.5 [M"}, {"measurement": "able to confer long term (15 day) protection against IL-1β induced cell-death", "setting": "[3]", "value": "not"}]}, {"compound": "CC(C)C[C@@H](NC(=O)[C@@H](Cc1ccccc1)NC(=O)[C@H]1CCCN1C(=O)[C@@H](CCC(N)=O)NC(=O)[C@H](NC(=O)[C@H]1CCCN1C(=O)[C@@H](CCCNC(=N)N)NC(=O)[C@@H](CO)NC(=O)[C@@H](CCC(N)=O)NC(=O)[C@H](N)CC(=O)O)C(C)C)C(=O)N[C@H](CC(N)=O)C(=O)N[C@H](CC(C)C)C(=O)N[C@@H](C(=O)N[C@@H](C(=O)N1CCC[C@@H]1C(=O)N[C@H](CCCNC(=N)N)C(=O)N[C@H](CCCCN)C(=O)N1CCC[C@@H]1C(=O)N[C@H](CCCNC(=N)N)C(=O)N1CCC[C@@H]1C(=O)N1CCC[C@@H]1C(=O)N[C@H](CCCNC(=N)N)C(=O)N[C@H](CCCNC(=N)N)C(=O)N[C@H](CCCNC(=N)N)C(=O)N[C@H](CCC(N)=O)C(=O)N[C@H](CCCNC(=N)N)C(=O)N[C@H](CCCNC(=N)N)C(=O)N[C@H](CCCCN)C(=O)N[C@H](CCCCN)C(=O)N[C@H](CCCNC(=N)N)C(=O)NCC(=O)O)[C@H](C)O)[C@H](C)O", "note": "[XG-102]", "values": [{"measurement": "activated caspase 3 levels", "setting": "[4]; cortex and hippocampus, 3 to 6 months", "value": "reduced activated caspase 3 levels"}, {"measurement": "decrease of cleaved caspase 3 level", "setting": "[4]; cortex, 6 months", "value": 50.8, "unit": "%"}, {"measurement": "effect on the JNK activation level", "setting": "[5]; WT and 5XFAD mice, summary", "value": "strong inhibitory effect"}, {"measurement": "change of JNK activation level (pJNK/JNK)", "setting": "[5]; cortex, 5XFAD mice, 10 mg/kg i.v. every 3 weeks", "value": "−39.9", "unit": "%"}, {"measurement": "change of JNK activation level (pJNK/JNK)", "setting": "[5]; cortex, WT mice, 10 mg/kg i.v. every 3 weeks", "value": "−59.6", "unit": "%"}, {"measurement": "decrease of JNK activation levels", "setting": "[5]; hippocampus, 5XFAD mice, 10 mg/kg i.v. every 3 weeks, 3 months", "value": 30.4, "unit": "%"}, {"measurement": "change of JNK activation level (pJNK/JNK)", "setting": "[5]; hippocampus, 5XFAD mice, 10 mg/kg i.v. every 3 weeks", "value": "−22.8", "unit": "%"}, {"measurement": "change of JNK activation level (pJNK/JNK)", "setting": "[5]; hippocampus, WT mice, 10 mg/kg i.v. every 3 weeks", "value": "−43.7", "unit": "%"}, {"measurement": "inhibition of IL-1β dependent endogenous JNK activity", "setting": "[6]", "value": "effectively inhibits JNK activity, even better than L-TAT-IB1(s)"}, {"measurement": "decrease of IL-1β expression level", "setting": "[7]; 5XFAD mice, 6 months of treatment, vs saline", "value": 31.4, "unit": "%"}, {"measurement": "IL-1β level", "setting": "[7]; [13]", "value": "no differences were observed between the groups"}, {"measurement": "improvement of spatial and procedural memory (Y-maze alternation)", "setting": "[8]", "value": 32, "unit": "%"}, {"measurement": "decrease of amyloid burden (Aβ42)", "setting": "[9]", "value": 29.9, "unit": "%"}, {"measurement": "decrease of JNK-mediated phosphorylation of c-Jun, fold less efficient than L-TAT-IB1(s)", "setting": "[2]; GST-Jun (aa 1-73), 0-250 μM dosage study", "value": "10-20 fold"}, {"measurement": "decrease of cJun activation level", "setting": "[10]; cortex, 3 months", "value": 34.9, "unit": "%"}, {"measurement": "change of cJun activation level", "setting": "[10]; cortex", "value": "−64", "unit": "%"}, {"measurement": "change of cJun activation level", "setting": "[10]; hippocampus", "value": "−42.1", "unit": "%"}, {"measurement": "caspase 3 activity", "setting": "[11]; [13]", "value": "no differences were observed between the groups"}, {"measurement": "change of caspase 3 activity", "setting": "[11]; cortex", "value": "−37.7", "unit": "%"}, {"measurement": "change of caspase 3 activity", "setting": "[11]; hippocampus", "value": "−60.6", "unit": "%"}, {"measurement": "pBCL [Ser87] levels", "setting": "[12]", "value": "pronouncedly decreased"}]}]}
